{"source": "PubChem BioAssay AID1259254 (NCATS, 2017)", "purpose": "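Finding genes that stop cells copying their DNA twice in one cycle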 (primary screen)", "system": "human HCT116 colorectal cancer cells", "reagents": "single siRNA against human genes", "time to read-out": "3 days", "detection": "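Nuclei stained with Hoechst and imaged; cell-cycle phase assigned by DNA content; G2 share scaled per plate, non-targeting siRNA 0%, GMNN siRNA 100%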", "direction": "G2 robust z-score and G2 cells, % of GMNN control: higher = more G2 cells, more excess DNA replication", "call rule": "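An siRNA counts as active if its G2 robust z-score lies at least 5 MADs above the screen median; here such calls match roughly 38% of GMNN control or more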", "note": "This is an unselected part of about 59,000 deposited reagents. About 1,550 of them (2.6%) were called active. 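G2 share is only a proxy for re-replication; each gene was hit by three separate siRNAs, and active genes were retested.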 Unmarked entries are inactive. The numbers tell different reagents against one gene apart. Further read-outs or replicates are left out here. No sequences are given here. The record does not give: the amount of reagent."}
{"Target gene":"PTPRN","reagent no.":1,"G2 robust z-score":0.409,"G2 cells, % of GMNN control":5.85}
{"Target gene":"PTPRN","reagent no.":2,"G2 robust z-score":-0.442,"G2 cells, % of GMNN control":-0.144}
{"Target gene":"PTPRN","reagent no.":3,"G2 robust z-score":0.106,"G2 cells, % of GMNN control":3.72}
{"Target gene":"KCNJ2","reagent no.":1,"G2 robust z-score":-0.43,"G2 cells, % of GMNN control":-0.0606}
{"Target gene":"KCNJ2","reagent no.":2,"G2 robust z-score":-0.92,"G2 cells, % of GMNN control":-3.51}
{"Target gene":"KCNJ2","reagent no.":3,"G2 robust z-score":-0.364,"G2 cells, % of GMNN control":0.408}
{"Target gene":"RORA","reagent no.":1,"G2 robust z-score":-0.795,"G2 cells, % of GMNN control":-2.62}
{"Target gene":"RORA","reagent no.":2,"G2 robust z-score":1.86,"G2 cells, % of GMNN control":16.1}
{"Target gene":"RORA","reagent no.":3,"G2 robust z-score":0.888,"G2 cells, % of GMNN control":9.22}
{"Target gene":"GPR84","reagent no.":1,"G2 robust z-score":-0.756,"G2 cells, % of GMNN control":-2.35}
{"Target gene":"GPR84","reagent no.":2,"G2 robust z-score":0.513,"G2 cells, % of GMNN control":6.58}
{"Target gene":"GPR84","reagent no.":3,"G2 robust z-score":-0.703,"G2 cells, % of GMNN control":-1.98}
{"Target gene":"FEM1C","reagent no.":1,"G2 robust z-score":-1.05,"G2 cells, % of GMNN control":-4.45}
{"Target gene":"FEM1C","reagent no.":2,"G2 robust z-score":-0.734,"G2 cells, % of GMNN control":-2.19}
{"Target gene":"FEM1C","reagent no.":3,"G2 robust z-score":-0.308,"G2 cells, % of GMNN control":0.802}
{"Target gene":"TMED7","reagent no.":1,"G2 robust z-score":1.74,"G2 cells, % of GMNN control":15.2}
{"Target gene":"TMED7","reagent no.":2,"G2 robust z-score":-0.32,"G2 cells, % of GMNN control":0.713}
{"Target gene":"TMED7","reagent no.":3,"G2 robust z-score":-0.827,"G2 cells, % of GMNN control":-2.85}
{"Target gene":"COL18A1-AS1","reagent no.":1,"G2 robust z-score":-0.202,"G2 cells, % of GMNN control":1.55}
{"Target gene":"COL18A1-AS1","reagent no.":2,"G2 robust z-score":0.0566,"G2 cells, % of GMNN control":3.37}
{"Target gene":"COL18A1-AS1","reagent no.":3,"G2 robust z-score":-0.808,"G2 cells, % of GMNN control":-2.72}
{"Target gene":"RICTOR","reagent no.":1,"G2 robust z-score":-0.415,"G2 cells, % of GMNN control":0.0488}
{"Target gene":"RICTOR","reagent no.":2,"G2 robust z-score":-0.739,"G2 cells, % of GMNN control":-2.23}
{"Target gene":"RICTOR","reagent no.":3,"G2 robust z-score":-0.22,"G2 cells, % of GMNN control":1.42}

Look-ups from above.
Under “G2 cells, % of GMNN control”, RORA #2 shows 16.1
FEM1C #1, G2 robust z-score: -1.05
FEM1C #3, G2 robust z-score = -0.308
